In PMC7006505 (Chemical Science, 2019):
Where a sequence shows no end group, the ends are not given.

Assay: general procedure: Fmoc solid-phase peptide synthesis; rink-amide resin
Conditions: whole synthesis

Row | Sequence | isolated yield [%]
1 | TFFYGGSRGKRNNFKTEEY | 15
2 | THRPPMWSPVWP | 12
